Record: PubChem BioAssay AID686943 (Drosophila RNAi Screening Center, 2013)

Purpose: 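Search across the genome for regulators of signalling from receptor tyrosine kinase to ERK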 (primary screen)
Cell system: Drosophila S2R+ haemocyte-like cells expressing YFP-tagged ERK (Rolled)
Reagent: long dsRNA against Drosophila genes
Treatment: insulin stimulation versus unstimulated cells; dose and duration not given
Read-out: 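Antibody staining for doubly phosphorylated ERK divided by ERK-YFP signal, as plate z-scores, in insulin-treated and untreated cells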
Direction: replicate 1, z-score of dpERK with insulin and replicate 2, z-score of dpERK with insulin: higher = more active ERK per ERK-YFP after insulin; replicate 1, z-score of dpERK under basal conditions: higher = more basal active ERK per ERK-YFP; replicate 1, z-score of ERK-YFP with insulin: higher = more YFP-tagged ERK signal
The deposit covers about 23,000 reagents; shown is a random part of those with a known target gene and a result. 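Extra replicates exist only for a retested subset of genes; insulin dose and duration not given; both raised and lowered dpERK matter.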 Names joined by + are all predicted targets of the reagent. Not given: the amount of reagent, the time to read-out.

target gene | amplicon | replicate 1, z-score of dpERK with insulin | replicate 2, z-score of dpERK with insulin | replicate 1, z-score of dpERK under basal conditions | replicate 1, z-score of ERK-YFP with insulin
hbt + CG43779 | DRSC02503 | 0.49 | -1.08 | 1.02 | 1.12
px (plexus) | DRSC04708 | -0.24 | -0.08 | -2.27 | 0.17
BHD (Birt-Hogg-Dube) | DRSC11017 | -0.02 | 0.28 | 0.67 | 0.14
BHD (Birt-Hogg-Dube) | DRSC22833 | 0.29 | 0.33 | 0.75 | 0
tow (target of wingless) | DRSC10192 | -4.5 | -2.99 | -1.52 | -4.41
lqf (liquid facets) | DRSC11363 | 0.14 | 0.27 | 0.35 | 0.01
hb (hunchback) | DRSC16963 | -0.29 | -0.23 | -0.47 | -0.08
lbe (ladybird early) | DRSC16985 | 0.29 | -0.07 | 0.52 | 0.21
CG18231 | DRSC10307 | 0.73 | -0.68 | -0.31 | 0.17
Crk (Crk oncogene) | DRSC17163 | 0.64 | -0.68 | -0.16 | -0.07
CG42810 | DRSC02533 | 0.9 | 0.64 | -0.11 | -0.28
CG8136 | DRSC16385 | -0.11 | -0.24 | -0.38 | -0.21
fy (fuzzy) | DRSC03533 | -0.48 | 0.22 | -0.45 | 1.48
SPR (Sex peptide receptor) | DRSC17390 | 1.24 | 0.64 | 1.2 | -0.32
SPR (Sex peptide receptor) | DRSC17886 | -1.31 | 0.48 | 0.61 | 0.58
SPR (Sex peptide receptor) | DRSC18114 | 0.05 | 0.84 | 1.18 | 0.24
SPR (Sex peptide receptor) | DRSC21557 | 0.11 | 0.07 | 0.53 | -1.05
ODA-Dnal1 (Outer dynein arm dynein axonemal light chain 1) | DRSC07270 | -0.14 | 0.23 | 0.36 | 0.45
CG18233 | DRSC10308 | 0.59 | -0.81 | 0.11 | 0.31
CG10336 | DRSC02037 | -0.69 | 0.48 | 0.72 | 0.68
JhI-21 (Juvenile hormone Inducible-21) | DRSC02161 | 0.57 | 0.04 | 0.25 | 0.2
CG17378 | DRSC02616 | 0.72 | 0.2 | 0.01 | 0.28
CG10098 | DRSC12509 | 0.16 | -0.8 | -0.22 | 0.02
5-HT1A (5-hydroxytryptamine (serotonin) receptor 1A) | DRSC05030 | -0.11 | 0.1 | 0.48 | 0.14
Nepl4 (Neprilysin-like 4) | DRSC03239 | -0.15 | 0.06 | 0.33 | 1.17
CG30020 | DRSC06252 | -0.58 | -0.72 | 0.78 | 1.93
CG30020 | DRSC06730 | -0.35 | 0.38 | 0.36 | 0.94
Polr1F (RNA polymerase I subunit F) | DRSC02278 | -0.02 | 0.02 | -0.17 | -0.46
sofe | DRSC19751 | -0.37 | -0.11 | -0.25 | 0.94
Sodh1 (Sorbitol dehydrogenase 1) | DRSC12605 | 0.09 | 0.64 | -0.3 | 0.56
CG10904 | DRSC04084 | -0.52 | 0.31 | -0.7 | 0.02
CG13737 | DRSC10064 | -0.16 | 0.21 | -0.58 | 0.28
Ttc1 (Tetratricopeptide repeat domain 1) | DRSC15016 | 0.88 | -1.56 | -0.49 | 0.25
Ttc1 (Tetratricopeptide repeat domain 1) | DRSC22469 | 0.1 | -0.68 | -0.83 | -0.31
Snmp2 (Sensory neuron membrane protein 2) | DRSC10228 | -0.29 | 0.53 | -0.55 | -0.09
Snmp2 (Sensory neuron membrane protein 2) | DRSC10843 | -0.4 | 0.66 | 0.51 | 0.42
Kdm3 (Lysine demethylase 3) | DRSC16393 | 0.02 | 0.17 | -0.07 | -0.44
CtIP (CTBP-interacting protein) | DRSC11785 | 0.74 | -0.51 | 1.3 | 0.13
CG14327 | DRSC14806 | 0.76 | 0.25 | 0.49 | 0.4
Fad2 | DRSC11165 | -1.75 | -1.24 | 0.2 | -0.28
CG5767 | DRSC06953 | 1.24 | 0.69 | 1.26 | -1.02
CG14841 | DRSC14965 | -0.26 | -0.11 | -0.33 | -0.03
qua (quail) | DRSC03598 | 0.29 | -0.2 | 1.05 | -0.44
RpS11 (Ribosomal protein S11) | DRSC07289 | -0.24 | -0.74 | -2.34 | -0.23
RpS11 (Ribosomal protein S11) | DRSC22700 | 0.17 | -0.28 | 3.21 | -2.63
CG18132 | DRSC00518 | -1.25 | -0.5 | -0.28 | 0.37
CG2614 | DRSC02711 | 0.74 | 0.29 | 2.46 | 0.38
wuho | DRSC18101 | 0.48 | -0.23 | -0.3 | -0.09
CG5611 | DRSC15843 | -0.23 | -1.38 | 2.47 | 0.71
Trpm (Transient receptor potential cation channel, subfamily M) | DRSC06629 | -0.83 | -0.48 | -1.43 | 0.68
Trpm (Transient receptor potential cation channel, subfamily M) | DRSC21566 | -0.04 | 0.88 | 3.15 | -0.14
CG7131 | DRSC16203 | -0.04 | -0.61 | -0.74 | 0.37
hoka | DRSC08313 | -0.18 | 0.39 | -0.26 | -0.01
Prx2 (Peroxiredoxin 2) | DRSC20256 | -0.34 | 0.02 | 0.5 | -0.24
Vamp7 (Vesicle-associated membrane protein 7) | DRSC06599 | -0.27 | 0.23 | 0.24 | 0.74
ppk7 (pickpocket 7) | DRSC03236 | 0.53 | 0.08 | 0.26 | -1.73
CG14073 | DRSC10078 | 0.79 | 1.41 | -1.66 | -0.51

Looked up above:
JhI-21 (Juvenile hormone Inducible-21) [DRSC02161], replicate 1, z-score of dpERK with insulin = 0.57
CG10904 [DRSC04084], replicate 1, z-score of dpERK under basal conditions = -0.7
Under “replicate 1, z-score of dpERK with insulin”, Ttc1 (Tetratricopeptide repeat domain 1) [DRSC15016] shows 0.88
